The list shows only some results of the screen, not a fair sample: it gathers tests that were run many times, whatever their T/C, doses with no T/C, and many T/C values between a quarter and a half above the control. Further doses and runs are listed elsewhere. T/C: endpoint of the treated group in % of that of the vehicle group. Some doses have a count of surviving animals in place of a T/C: the source holds a T/C of zero for them, seemingly a mark for toxic or unscored doses. Some doses without a T/C left all or most animals alive at the check, yet need not have been tolerated: the source hardly ever lists a survival T/C far under the control, and the zero likely stands for such cases as well. Survivors were counted at the toxicity check, usually on the fifth day, unless a day is given; later deaths do not show. Schedules are NCI's codes, taken here to give the interval after Q, in days (D) or hours (H), and the number of doses after X. Some structures stand for samples that the source files as different forms (salt, stereo form or complex); doses refer to the form tested. Some entries were tested several times; their values stand side by side, smallest first. Some schedule codes hold Z or #, which are not explained here. Counts like (3×) stand for listed records that agree. Where survival is the endpoint, the PubChem record calls one and a half times the control and up active, and a quarter to a half above the control has no call in these data; cut-offs in other NCI protocols can differ.
System: L1210 leukemia ip in BDF1 mice, survival T/C
Assay: NCI In Vivo Anticancer Drug Screen. Data for tumor model L1210 Leukemia (intraperitoneal) in B6D2F1 (BDF1) mice
Conditions: T/C endpoint: mean survival time, higher T/C = longer survival
[1] = dose: 400.0 mg/kg/injection, schedule: Q01DX009 (ip), vehicle: saline with Tween-80
[2] = dose: 100.0 mg/kg/injection, schedule: Q01DX009 (ip), vehicle: saline
[3] = dose: 200.0 mg/kg/injection, schedule: Q04DX003 (ip), vehicle: saline
[4] = dose: 400.0 mg/kg/injection, schedule: Q04DX003 (ip), vehicle: saline
[5] = dose: 200.0 mg/kg/injection, schedule: Q01DX001 (ip), vehicle: saline
[6] = dose: 150.0 mg/kg/injection, schedule: Q01DX001 (ip), vehicle: saline
[7] = dose: 300.0 mg/kg/injection, schedule: Q01DX001 (ip), vehicle: saline
[8] = dose: 100.0 mg/kg/injection, schedule: Q04DX003 (ip), vehicle: saline
[9] = dose: 400.0 mg/kg/injection, schedule: Q04DX003 (ip), vehicle: Klucel (hydroxypropylcellulose) (HPC)

O=C(Nc1ccc(F)c(Cl)c1)Nc1ccc(Cl)c(C(F)(F)F)c1
survivor count [1]: 0 of 6

COc1cc2c(cc1OC)C(CCN1C(=O)c3ccccc3C1=O)=NCC2
survivor count [2]: 6 of 6 | survivor count [3]: 0 of 6 | survivor count [4]: 0 of 6

Cc1cc(C)c(C[N+](C)(C)C)c(C)c1C
survivor count (dose: 100.0 mg/kg/injection, schedule: Q01DX001 (ip), vehicle: saline): 0 of 4 | survivor count [5]: 0 of 4 | survivor count (dose: 400.0 mg/kg/injection, schedule: Q01DX001 (ip), vehicle: saline): 0 of 4

O=C(OC1COC(OC(=O)c2ccccc2)C(OC(=O)c2ccccc2)C1OC(=O)c1ccccc1)c1ccccc1 (centres undefined)
survivor count [5]: 6 of 6

CC(C)CN(C)N=Nc1ccc(C(N)=O)cc1
survivor count (dose: 400.0 mg/kg/injection, schedule: Q01DX001 (ip), vehicle: other): 1 of 4

C[N+](C)(C)C1/C=C(/Cl)CC/C=C(/Cl)C1 (centres undefined)
survivor count (dose: 75.0 mg/kg/injection, schedule: Q01DX001 (ip), vehicle: saline): 0 of 6 | survivor count [6]: 0 of 6 | survivor count [7]: 0 of 6

C=CC1=CC(=O)OC1=O
survivor count (dose: 9.37 mg/kg/injection, schedule: Q01DX001 (ip), vehicle: saline): 2 of 6 | survivor count (dose: 18.75 mg/kg/injection, schedule: Q01DX001 (ip), vehicle: saline): 2 of 6 | survivor count (dose: 20.0 mg/kg/injection, schedule: Q01DX001 (ip), vehicle: saline): 2 of 6 | survivor count (dose: 37.5 mg/kg/injection, schedule: Q01DX001 (ip), vehicle: saline): 0 of 6 | survivor count (dose: 40.0 mg/kg/injection, schedule: Q01DX001 (ip), vehicle: saline): 2 of 6

Clc1nnc(Cl)c(Cl)c1Cl
survivor count (dose: 2.5 mg/kg/injection, schedule: Q04DX003 (ip), vehicle: acetone): 3 of 6 | survivor count (dose: 5.0 mg/kg/injection, schedule: Q01DX001 (ip), vehicle: saline): 2 of 6 | survivor count (dose: 10.0 mg/kg/injection, schedule: Q01DX001 (ip), vehicle: saline): 1 of 6 | survivor count (dose: 16.0 mg/kg/injection, schedule: Q01DX015 (ip), vehicle: carboxymethylcellulose (CMC)): 2 of 6 | survivor count (dose: 32.0 mg/kg/injection, schedule: Q01DX015 (ip), vehicle: carboxymethylcellulose (CMC)): 0 of 6

CC(=N\N=C(N)N)/C(=N/N=C(N)N)c1ccccc1
survivor count (dose: 60.0 mg/kg/injection, schedule: Q01DX Z (ip), vehicle: saline): 0 of 6 | survivor count (dose: 120.0 mg/kg/injection, schedule: Q01DX Z (ip), vehicle: saline): 0 of 6 | survivor count (dose: 480.0 mg/kg/injection, schedule: Q01DX009 (oral), vehicle: saline): 5 of 6

O=C(O)c1ccccc1-c1ccc([N+](=O)[O-])cc1Cl
survivor count (dose: 600.0 mg/kg/injection, schedule: Q01DX001 (ip), vehicle: carboxymethylcellulose (CMC)): 0 of 6

NOCC(=O)O
survivor count (dose: 100.0 mg/kg/injection, schedule: Q01DX001 (ip), vehicle: carboxymethylcellulose (CMC)): 4 of 4

CCC(C#N)=C1CCCCC1
survivor count [3]: 6 of 6 | survivor count [4]: 6 of 6

NC(=O)N(CCCO)/N=C\c1ccc([N+](=O)[O-])o1
survivor count (dose: 400.0 mg/kg/injection, schedule: Q04DX002 (ip), vehicle: Klucel (hydroxypropylcellulose) (HPC)): 0 of 3

CC(=O)N(C)c1ccc(S(=O)(=O)Cl)cc1
survivor count [1]: 4 of 6

C[N+](C)(C)CC#N
survivor count [4]: 3 of 6

CCOC(=O)c1cc2c(=O)c(C(=O)OCC)c[nH]c2o1
survivor count (dose: 200.0 mg/kg/injection, schedule: Q04DX002 (ip), vehicle: Klucel (hydroxypropylcellulose) (HPC)): 0 of 3

COc1cc2c(cc1OC)C13CCN4CC5=CCOC6CC(=O)N2C1C6C5CC43 (centres undefined) (tested in a mixture with another compound)
survivor count (dose: 100.0 mg/kg/injection, schedule: Q01DX001 (ip), vehicle: Klucel (hydroxypropylcellulose) (HPC)): 0 of 6 | survivor count (dose: 100.0 mg/kg/injection, schedule: Q01DX001 (ip), vehicle: saline with Tween-80): 0 of 6 | survivor count (dose: 100.0 mg/kg/injection, schedule: Q01DX009 (ip), vehicle: Klucel (hydroxypropylcellulose) (HPC)): 3 of 6 | survivor count (dose: 100.0 mg/kg/injection, schedule: Q04DX003 (ip), vehicle: Klucel (hydroxypropylcellulose) (HPC)): 2 of 6 and 6 of 6 | survivor count [8]: 1 of 6 and 6 of 6 | survivor count (dose: 115.0 mg/kg/injection, schedule: Q01DX009 (ip), vehicle: saline): 0 of 6 | survivor count [6]: 0 of 6 and 1 of 6 | survivor count (dose: 170.0 mg/kg/injection, schedule: Q01DX009 (ip), vehicle: saline): 0 of 6 | survivor count (dose: 200.0 mg/kg/injection, schedule: Q01DX001 (ip), vehicle: Klucel (hydroxypropylcellulose) (HPC)): 0 of 6 and 1 of 6 | survivor count (dose: 200.0 mg/kg/injection, schedule: Q01DX009 (ip), vehicle: Klucel (hydroxypropylcellulose) (HPC)): 0 of 6 | survivor count (dose: 200.0 mg/kg/injection, schedule: Q04DX003 (ip), vehicle: Klucel (hydroxypropylcellulose) (HPC)): 0 of 6 | survivor count [3]: 0 of 6 | survivor count [7]: 0 of 6 (3×) | survivor count (dose: 400.0 mg/kg/injection, schedule: Q01DX001 (ip), vehicle: Klucel (hydroxypropylcellulose) (HPC)): 0 of 6 (2×) | survivor count (dose: 400.0 mg/kg/injection, schedule: Q01DX009 (ip), vehicle: Klucel (hydroxypropylcellulose) (HPC)): 0 of 6 | survivor count [9]: 0 of 6 and 6 of 6 | survivor count [4]: 0 of 6

CC(C)=CCC/C(C)=C/CNc1ncnc2nc[nH]c12
survivor count (dose: 400.0 mg/kg/injection, schedule: Q04DX003 (ip), vehicle: acetone): 0 of 6

CC1=CC(C)(N=[N+]=[N-])CC(C)(C)C1 (centres undefined)
survivor count [7]: 0 of 6

CC(C)c1ccc(/C=N\NC(=O)N/N=C/c2ccc(C(C)C)cc2)cc1
survivor count [9]: 6 of 6

CCCCCCCCCCCCCCCCCCN1CCSCC1
survivor count (dose: 400.0 mg/kg/injection, schedule: Q04DX002 (ip), vehicle: saline with Tween-80): 3 of 3

CC(C)(C)c1ccc(N)cc1
survivor count [8]: 3 of 3 | survivor count [3]: 3 of 3 | survivor count [4]: 2 of 3

CCCCCCCCCCC/C=N\[N+](C)(C)C
survivor count (dose: 50.0 mg/kg/injection, schedule: Q01DX009 (ip), vehicle: Klucel (hydroxypropylcellulose) (HPC)): 0 of 6 | survivor count (dose: 75.0 mg/kg/injection, schedule: Q01DX009 (ip), vehicle: Klucel (hydroxypropylcellulose) (HPC)): 0 of 6 | survivor count (dose: 150.0 mg/kg/injection, schedule: Q01DX009 (ip), vehicle: Klucel (hydroxypropylcellulose) (HPC)): 0 of 6 | survivor count (dose: 300.0 mg/kg/injection, schedule: Q01DX009 (ip), vehicle: Klucel (hydroxypropylcellulose) (HPC)): 0 of 6

COC(=O)C(c1ccccc1)C1CCCCN1 (centres undefined)
survivor count [2]: 0 of 6 | survivor count [3]: 4 of 4 | survivor count [4]: 0 of 4

CC(=O)O[C@@]1(C)[C@@H](C)C(=O)O[C@@H]2CCN3CC=C(COC(=O)[C@]1(C)O)[C@H]23
T/C (dose: 25.0 mg/kg/injection, schedule: Q01DX009 (ip), vehicle: carboxymethylcellulose (CMC)): 131 % of control | T/C (dose: 50.0 mg/kg/injection, schedule: Q01DX009 (ip), vehicle: saline): 126 % of control | T/C [2]: 134 % of control | survivor count (dose: 200.0 mg/kg/injection, schedule: Q01DX009 (ip), vehicle: carboxymethylcellulose (CMC)): 1 of 6 | survivor count (dose: 200.0 mg/kg/injection, schedule: Q01DX009 (ip), vehicle: saline): 3 of 6

Source: PubChem BioAssay AID248 (DTP/NCI, 2004)
